In publication PMC12514575:
These are yes or no findings as the source states them, for the method shown. Binding seen in cells or lysates may run through a third protein. These calls come from enrichment with a bait or labelling near it, and not all partners need be listed. Sequences can lack the tags named with a protein.

Target: T1, FLAG-tagged WT full-length DCAF13 (DDB1- and CUL4-associated factor 13) (UniProt Q9NV06)
T1 sequence: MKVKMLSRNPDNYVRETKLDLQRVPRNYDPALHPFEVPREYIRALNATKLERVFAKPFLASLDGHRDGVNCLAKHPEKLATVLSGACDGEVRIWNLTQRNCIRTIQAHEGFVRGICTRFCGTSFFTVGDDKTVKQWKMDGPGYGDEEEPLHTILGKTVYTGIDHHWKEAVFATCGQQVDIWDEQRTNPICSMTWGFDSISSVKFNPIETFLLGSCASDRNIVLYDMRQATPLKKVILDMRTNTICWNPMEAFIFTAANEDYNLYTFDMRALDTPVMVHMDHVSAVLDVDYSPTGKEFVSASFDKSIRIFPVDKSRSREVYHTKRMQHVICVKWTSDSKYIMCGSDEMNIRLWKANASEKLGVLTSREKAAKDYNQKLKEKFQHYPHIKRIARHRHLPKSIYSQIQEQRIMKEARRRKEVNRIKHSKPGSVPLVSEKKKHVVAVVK
Experiment: affinity purification with mass spectrometry; lysate of A549 cells transfected with FLAG-DCAF13; anti-FLAG antibody on Protein A/G magnetic beads, overnight at 4 °C, 10 washes with PBS + 0.5% Tween-20; SDS-PAGE, LC-MS/MS; IgG as control

B1: TAF1A, a subunit of selective factor 1 (SL1) (protein, UniProt Q15573 1-450)
chain: MSDFSEELKGPVTDDEEVETSVLSGAGMHFPWLQTYVETVAIGGKRRKDFAQTTSACLSFIQEALLKHQWQQAAEYMYSYFQTLEDSDSYKRQAAPEIIWKLGSEILFYHPKSNMESFNTFANRMKNIGVMNYLKISLQHALYLLHHGMLKDAKRNLSEAETWRHGENTSSREILINLIQAYKGLLQYYTWSEKKMELSKLDKDDYAYNAVAQDVFNHSWKTSANISALIKIPGVWDPFVKSYVEMLEFYGDRDGAQEVLTNYAYDEKFPSNPNAHIYLYNFLKRQKAPRSKLISVLKILYQIVPSHKLMLEFHTLLRKSEKEEHRKLGLEVLFGVLDFAGCTKNITAWKYLAKYLKNILMGNHLAWVQEEWNSRKNWWPGFHFSYFWAKSDWKEDTALACEKAFVAGLLLGKGCRYFRYILKQDHQILGKKIKRMKRSVKKYSIVNPRL
With B1 the binding was “binds”.
